# Source: the supplement of paper PMC10849652
# Chains of the proteins cited; added tags and fusions are not shown. Lines headed by an entry give the natural chain unless they say otherwise; changes in a name come on top.
# UniProt O43395: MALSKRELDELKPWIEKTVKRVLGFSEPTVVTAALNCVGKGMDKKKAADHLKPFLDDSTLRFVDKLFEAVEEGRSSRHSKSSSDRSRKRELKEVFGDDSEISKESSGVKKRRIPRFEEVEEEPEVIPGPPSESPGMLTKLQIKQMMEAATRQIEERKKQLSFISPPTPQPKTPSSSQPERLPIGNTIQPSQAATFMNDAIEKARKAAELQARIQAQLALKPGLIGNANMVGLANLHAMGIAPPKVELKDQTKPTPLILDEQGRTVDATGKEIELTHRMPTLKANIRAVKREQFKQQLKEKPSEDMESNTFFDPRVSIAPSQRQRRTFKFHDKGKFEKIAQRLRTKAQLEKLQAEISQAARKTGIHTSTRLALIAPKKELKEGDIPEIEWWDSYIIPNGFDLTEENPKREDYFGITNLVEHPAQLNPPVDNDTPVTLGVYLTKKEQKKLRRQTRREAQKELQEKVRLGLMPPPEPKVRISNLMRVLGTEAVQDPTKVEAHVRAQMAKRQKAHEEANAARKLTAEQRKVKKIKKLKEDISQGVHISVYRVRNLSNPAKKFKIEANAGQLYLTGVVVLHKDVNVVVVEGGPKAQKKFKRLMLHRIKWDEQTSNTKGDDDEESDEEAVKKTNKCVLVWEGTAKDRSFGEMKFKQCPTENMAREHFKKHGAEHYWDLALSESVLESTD
# UniProt O75569: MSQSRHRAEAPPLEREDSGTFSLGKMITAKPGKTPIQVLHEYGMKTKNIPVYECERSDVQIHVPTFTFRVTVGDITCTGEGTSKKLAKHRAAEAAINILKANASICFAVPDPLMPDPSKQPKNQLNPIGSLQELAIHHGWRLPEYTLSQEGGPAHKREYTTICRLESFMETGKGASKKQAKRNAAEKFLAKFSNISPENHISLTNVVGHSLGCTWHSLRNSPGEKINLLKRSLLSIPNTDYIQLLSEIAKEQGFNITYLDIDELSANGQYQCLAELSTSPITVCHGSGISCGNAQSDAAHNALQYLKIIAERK
# UniProt Q9Y255: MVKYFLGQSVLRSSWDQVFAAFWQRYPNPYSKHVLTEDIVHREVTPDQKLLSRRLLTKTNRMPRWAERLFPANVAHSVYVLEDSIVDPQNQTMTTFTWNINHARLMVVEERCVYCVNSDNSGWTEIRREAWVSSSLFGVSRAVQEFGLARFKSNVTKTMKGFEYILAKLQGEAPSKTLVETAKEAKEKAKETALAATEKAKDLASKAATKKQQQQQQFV
# UniProt O43741: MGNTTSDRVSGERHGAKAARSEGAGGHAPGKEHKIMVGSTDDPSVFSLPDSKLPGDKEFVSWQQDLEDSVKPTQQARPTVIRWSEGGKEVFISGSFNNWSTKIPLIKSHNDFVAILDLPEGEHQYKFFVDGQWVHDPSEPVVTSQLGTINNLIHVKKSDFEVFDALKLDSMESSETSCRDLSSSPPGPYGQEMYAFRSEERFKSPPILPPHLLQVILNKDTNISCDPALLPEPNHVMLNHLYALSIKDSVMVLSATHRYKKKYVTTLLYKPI
# UniProt P31321, whole entry, looked up: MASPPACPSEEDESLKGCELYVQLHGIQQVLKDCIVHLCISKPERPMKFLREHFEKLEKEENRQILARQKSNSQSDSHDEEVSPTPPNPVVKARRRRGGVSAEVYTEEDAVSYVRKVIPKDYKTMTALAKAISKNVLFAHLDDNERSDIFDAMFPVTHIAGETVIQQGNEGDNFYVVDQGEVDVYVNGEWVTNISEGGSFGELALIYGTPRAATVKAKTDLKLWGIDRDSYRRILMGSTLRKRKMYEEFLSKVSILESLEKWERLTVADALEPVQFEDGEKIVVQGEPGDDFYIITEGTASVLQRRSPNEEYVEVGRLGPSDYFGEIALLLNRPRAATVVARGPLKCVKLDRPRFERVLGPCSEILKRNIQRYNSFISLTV
# UniProt Q16537, whole entry, looked up: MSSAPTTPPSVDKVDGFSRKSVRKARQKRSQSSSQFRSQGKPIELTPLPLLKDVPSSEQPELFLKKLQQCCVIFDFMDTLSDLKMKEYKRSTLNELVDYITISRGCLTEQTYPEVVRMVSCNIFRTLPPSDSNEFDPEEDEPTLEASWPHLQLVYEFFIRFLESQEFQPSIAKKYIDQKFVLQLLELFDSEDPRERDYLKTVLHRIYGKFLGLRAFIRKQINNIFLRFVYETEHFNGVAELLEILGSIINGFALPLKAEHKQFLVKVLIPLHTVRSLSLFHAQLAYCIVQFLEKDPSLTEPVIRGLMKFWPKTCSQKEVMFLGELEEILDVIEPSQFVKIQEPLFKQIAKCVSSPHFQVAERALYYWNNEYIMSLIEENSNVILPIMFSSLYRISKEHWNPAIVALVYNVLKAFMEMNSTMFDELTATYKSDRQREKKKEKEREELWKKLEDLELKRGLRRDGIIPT
# UniProt Q13362, whole entry, looked up: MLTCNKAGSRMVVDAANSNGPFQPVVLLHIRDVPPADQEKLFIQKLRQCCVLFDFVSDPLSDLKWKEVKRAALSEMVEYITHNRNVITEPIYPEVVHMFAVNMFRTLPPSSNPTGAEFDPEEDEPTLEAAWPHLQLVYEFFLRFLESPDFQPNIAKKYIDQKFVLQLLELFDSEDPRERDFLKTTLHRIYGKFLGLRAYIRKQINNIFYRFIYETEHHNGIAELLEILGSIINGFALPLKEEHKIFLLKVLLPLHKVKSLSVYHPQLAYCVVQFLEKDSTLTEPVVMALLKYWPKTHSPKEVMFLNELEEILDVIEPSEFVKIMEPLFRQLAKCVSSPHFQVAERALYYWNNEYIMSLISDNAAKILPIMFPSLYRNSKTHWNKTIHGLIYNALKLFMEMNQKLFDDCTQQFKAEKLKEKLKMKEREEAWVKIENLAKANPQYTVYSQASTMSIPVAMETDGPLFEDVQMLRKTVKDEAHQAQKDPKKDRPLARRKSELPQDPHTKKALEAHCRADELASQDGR
# UniProt Q6ZMI0: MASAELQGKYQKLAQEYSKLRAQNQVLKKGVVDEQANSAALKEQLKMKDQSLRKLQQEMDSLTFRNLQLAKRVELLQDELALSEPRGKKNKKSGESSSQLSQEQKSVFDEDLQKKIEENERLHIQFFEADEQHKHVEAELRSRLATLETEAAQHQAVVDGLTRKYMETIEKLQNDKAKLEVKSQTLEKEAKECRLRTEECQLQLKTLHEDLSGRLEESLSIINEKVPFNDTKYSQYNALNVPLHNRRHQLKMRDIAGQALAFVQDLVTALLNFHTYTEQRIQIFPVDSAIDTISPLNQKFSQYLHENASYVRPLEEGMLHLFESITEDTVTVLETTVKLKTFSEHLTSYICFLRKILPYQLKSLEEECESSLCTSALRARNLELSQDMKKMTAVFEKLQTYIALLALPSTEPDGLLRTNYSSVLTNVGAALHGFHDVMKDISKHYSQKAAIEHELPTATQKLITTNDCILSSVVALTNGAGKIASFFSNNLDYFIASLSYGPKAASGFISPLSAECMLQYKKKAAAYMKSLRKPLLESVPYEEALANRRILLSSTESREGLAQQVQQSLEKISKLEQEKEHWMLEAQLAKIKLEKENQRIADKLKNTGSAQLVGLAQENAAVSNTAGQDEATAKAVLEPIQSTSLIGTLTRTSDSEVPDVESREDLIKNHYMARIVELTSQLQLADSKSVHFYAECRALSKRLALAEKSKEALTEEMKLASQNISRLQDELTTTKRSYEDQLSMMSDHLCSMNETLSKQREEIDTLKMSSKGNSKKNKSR
# UniProt Q8TAP8: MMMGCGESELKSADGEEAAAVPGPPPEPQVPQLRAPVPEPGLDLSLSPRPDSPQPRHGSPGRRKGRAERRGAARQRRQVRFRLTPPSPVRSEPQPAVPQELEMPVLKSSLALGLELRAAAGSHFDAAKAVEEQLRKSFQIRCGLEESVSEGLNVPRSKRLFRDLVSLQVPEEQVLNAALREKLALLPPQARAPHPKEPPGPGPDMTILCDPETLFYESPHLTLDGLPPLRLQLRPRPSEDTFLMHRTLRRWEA
# UniProt Q99633: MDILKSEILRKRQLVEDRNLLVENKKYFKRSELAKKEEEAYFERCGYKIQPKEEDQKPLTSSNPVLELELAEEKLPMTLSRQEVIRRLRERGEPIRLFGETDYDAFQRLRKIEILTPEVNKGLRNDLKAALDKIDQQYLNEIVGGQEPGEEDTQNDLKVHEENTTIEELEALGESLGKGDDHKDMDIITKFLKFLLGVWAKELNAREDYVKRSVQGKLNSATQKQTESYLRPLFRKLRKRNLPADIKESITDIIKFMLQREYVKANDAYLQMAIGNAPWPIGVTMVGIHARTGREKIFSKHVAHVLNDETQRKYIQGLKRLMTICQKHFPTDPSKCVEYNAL
# UniProt Q9ULJ8: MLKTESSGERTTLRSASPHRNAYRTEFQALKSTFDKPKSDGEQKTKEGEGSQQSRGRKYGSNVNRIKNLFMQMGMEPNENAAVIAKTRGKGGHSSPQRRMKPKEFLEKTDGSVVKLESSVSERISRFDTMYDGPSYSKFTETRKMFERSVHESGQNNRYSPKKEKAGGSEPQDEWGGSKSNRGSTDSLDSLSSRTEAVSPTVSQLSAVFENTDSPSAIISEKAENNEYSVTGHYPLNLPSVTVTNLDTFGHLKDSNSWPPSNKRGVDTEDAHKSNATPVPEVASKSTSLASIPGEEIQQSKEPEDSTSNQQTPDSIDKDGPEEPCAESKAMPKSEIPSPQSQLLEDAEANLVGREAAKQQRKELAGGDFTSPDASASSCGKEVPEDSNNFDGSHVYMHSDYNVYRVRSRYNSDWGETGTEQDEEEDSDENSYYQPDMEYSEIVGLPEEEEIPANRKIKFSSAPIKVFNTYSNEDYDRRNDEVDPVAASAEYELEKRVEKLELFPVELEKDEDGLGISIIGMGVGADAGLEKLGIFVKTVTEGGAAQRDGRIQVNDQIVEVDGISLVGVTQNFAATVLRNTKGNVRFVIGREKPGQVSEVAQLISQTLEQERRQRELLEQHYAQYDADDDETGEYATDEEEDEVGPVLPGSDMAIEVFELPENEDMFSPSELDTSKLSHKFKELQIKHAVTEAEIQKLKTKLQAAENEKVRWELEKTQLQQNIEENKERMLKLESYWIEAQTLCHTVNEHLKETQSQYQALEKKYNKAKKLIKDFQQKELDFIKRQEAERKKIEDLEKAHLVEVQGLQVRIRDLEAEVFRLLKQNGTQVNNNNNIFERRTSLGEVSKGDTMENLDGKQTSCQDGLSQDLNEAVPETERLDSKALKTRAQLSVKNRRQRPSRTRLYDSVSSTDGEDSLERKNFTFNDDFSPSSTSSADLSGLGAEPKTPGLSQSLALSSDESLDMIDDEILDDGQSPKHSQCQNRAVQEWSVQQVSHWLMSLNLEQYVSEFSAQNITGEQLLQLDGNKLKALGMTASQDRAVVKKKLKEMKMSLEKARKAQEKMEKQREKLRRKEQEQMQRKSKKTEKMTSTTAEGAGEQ
# UniProt Q9UNN8: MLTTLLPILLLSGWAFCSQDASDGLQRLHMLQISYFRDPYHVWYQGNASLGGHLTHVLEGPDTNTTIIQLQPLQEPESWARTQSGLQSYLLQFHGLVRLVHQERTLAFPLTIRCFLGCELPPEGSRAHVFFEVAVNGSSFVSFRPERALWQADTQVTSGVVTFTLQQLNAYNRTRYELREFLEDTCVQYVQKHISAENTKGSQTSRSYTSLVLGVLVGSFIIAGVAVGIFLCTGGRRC
# The list shows a part of the results.
# Legend:
# Experiment in all cases: log2 fold change, soluble protein after heating vs DMSO (PISA); higher = thermal stabilisation; K562 cells, 10 uM, 30 min; active = over 0.2 and 3.5 SD of the protein, either way, in both replicates (recomputed)
# [1] = compound: CC1=C(C=C(C=C1)NC(=O)C2=CC(=CC=C2)C(C)(C)C#N)NC3=CC4=C(C=C3)N=CN(C4=O)C
# In short: (§1)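 Thermal stability values are relative to control samples and come from duplicates. They are expressed as log2 fold changes. For measurement, K562 cells (2×10^6 cells/mL) received 10 μM compound for 30 min, and aliquots were heated for 3 min over 48°C-58°C, pooled, and extracted at 4°C in PBS with 0.5% NP-40. Soluble protein, the supernatant after 21,000xg for 90 min, was quantified by TMTpro 16plex LC-MS/MS with equalised channel sums.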
# [2] = compound: CC1=CC=C(C=C1)SC2=C3C=C(SC3=CN=C2)C(=O)N
# In short: as §1
# [3] = compound: CC1=NC(=CC=C1)C2=C(N=C(N2)C(C)(C)C)C3=CC4=NC=CN=C4C=C3
# In short: as §1
# Nexturastat A = compound: CCCCN(Cc1ccc(C(=O)NO)cc1)C(=O)Nc1ccccc1 [Nexturastat A]
# In short: as §1
# vemurafenib = compound: CCCS(=O)(=O)Nc1ccc(F)c(C(=O)c2c[nH]c3ncc(-c4ccc(Cl)cc4)cc23)c1F [vemurafenib]
# In short: as §1
# [4] = compound: CCCS(=O)(=O)Nc1ccc(F)c(C(=O)c2c[nH]c3ncc(Cl)cc23)c1F
# In short: as §1
# [5] = compound: CCCc1cc(C)[nH]c(=O)c1CNC(=O)c1cc(-c2ccnc(N3CCN(C)CC3)c2)cc2c1cnn2C(C)C
# In short: as §1
# givinostat = compound: CCN(CC)Cc1ccc2cc(COC(=O)Nc3ccc(C(=O)NO)cc3)ccc2c1 [givinostat]
# In short: as §1
# barasertib = compound: CCN(CCCOc1ccc2c(Nc3cc(CC(=O)Nc4cccc(F)c4)[nH]n3)ncnc2c1)CCOP(=O)(O)O [barasertib]
# In short: as §1
# [6] = compound: CC[C@@H]1C(=O)N(C)c2cnc(Nc3ccc(C(=O)NC4CCN(C)CC4)cc3OC)nc2N1C1CCCC1
# In short: as §1
# volasertib = compound: CC[C@@H]1C(=O)N(C)c2cnc(Nc3ccc(C(=O)N[C@H]4CC[C@H](N5CCN(CC6CC6)CC5)CC4)cc3OC)nc2N1C(C)C [volasertib]
# In short: as §1
# [7] = compound: CC[C@H](C)N1C=C(C2=C(C=C(C=C21)C3=CN=C(C=C3)N4CCNCC4)C(=O)NCC5=C(C=C(NC5=O)C)C)C
# In short: as §1
# epoxomicin = compound: CC[C@H](C)[C@@H](C(=O)N[C@@H]([C@@H](C)O)C(=O)N[C@@H](CC(C)C)C(=O)[C@]1(CO1)C)NC(=O)[C@H]([C@@H](C)CC)N(C)C(=O)C [epoxomicin]
# In short: as §1
# [8] = compound: CCn1cc(-c2ccnc3[nH]c(-c4cccc(CN(C)C)c4)cc23)c(-c2ccc(NC(=O)N(C)C)cc2)n1
# In short: as §1
# [9] = compound: CN(C)CC(=O)Nc1ccc2[nH]c(=O)c3ccccc3c2c1
# In short: as §1
# [10] = compound: CN1C2=C(C3=C1C(=O)N(N=C3)CC4=CC(=CC=C4)N)SC(=C2)S(=O)C
# In short: as §1
# [11] = compound: CN1CCC(CNc2ccc3ncc(-c4cccc(OC(F)(F)F)c4)n3n2)CC1
# In short: as §1
# [12] = compound: CC1=C(C=C(C=C1)NC(=O)C2=CC(=CC=C2)N(C)C)NC(=O)C3=CC=C(C=C3)O
# In short: as §1
# [13] = compound: CCn1c(C(=O)N(C2CC2)C2CC2)cc2c3c(ncn3C)c(Nc3cc(C)n(C)n3)nc21
# In short: as §1
# rosiglitazone = compound: CN(CCOC1=CC=C(C=C1)C[C@H]2C(=O)NC(=O)S2)C3=CC=CC=N3 (racemic) [rosiglitazone]
# In short: as §1
Target,log2 fold change [1],log2 fold change [2],log2 fold change [3],log2 fold change (Nexturastat A),log2 fold change (vemurafenib),log2 fold change [4],log2 fold change [5],log2 fold change (givinostat),log2 fold change (barasertib),log2 fold change [6],log2 fold change (volasertib),log2 fold change [7],log2 fold change (epoxomicin),log2 fold change [8],log2 fold change [9],log2 fold change [10],log2 fold change [11],log2 fold change [12],log2 fold change [13],log2 fold change (rosiglitazone)
PRKCE (UniProt Q02156),inactive: 0.041,inactive: -0.012,inactive: 0.048,inactive: -0.242,inactive: 0.077,inactive: 0.085,inactive: -0.02,active: -0.393,inactive: 0.013,inactive: -0.051,inactive: -0.125,inactive: 0.099,inactive: 0.036,inactive: -0.067,inactive: 0.036,inactive: -0.106,inactive: -0.16,,,
PRPF3 (UniProt O43395),inactive: 0.05,inactive: 0.038,inactive: 0.117,inactive: -0.087,inactive: 0.1,inactive: 0.081,inactive: -0.005,inactive: 0.086,inactive: 0.028,inactive: -0.114,active: -0.34,inactive: 0.069,inactive: 0.069,inactive: -0.062,inactive: 0.116,inactive: 0.004,inactive: -0.17,inactive: -0.025,,
PPP3CA (UniProt Q08209),inactive: -0.002,inactive: 0.052,inactive: 0.052,,inactive: -0.055,inactive: 0.019,inactive: 0.045,inactive: -0.007,inactive: 0.056,inactive: -0.111,inactive: -0.082,inactive: 0.013,,inactive: 0.011,inactive: 0.055,inactive: -0.05,inactive: -0.076,inactive: 0.003,inactive: 0.029,inactive: 0.063
PRPF6 (UniProt O94906),inactive: 0.094,,inactive: 0.209,inactive: 0.011,,,,inactive: 0.211,inactive: 0.261,,,,inactive: 0.104,inactive: 0.103,,inactive: -0.118,inactive: 0.146,inactive: 0.029,inactive: -0.061,inactive: -0.094
PRKRA (UniProt O75569),inactive: 0.091,inactive: -0.031,inactive: -0.263,inactive: 0.363,inactive: -0.147,inactive: 0.07,inactive: 0.124,,inactive: -0.067,inactive: 0.167,inactive: 0.016,inactive: -0.072,inactive: -0.224,inactive: 0.214,inactive: -0.104,inactive: 0.286,inactive: 0.107,inactive: 0.039,,inactive: 0.075
PRKCQ (UniProt Q04759),inactive: 0.013,inactive: 0.073,inactive: -0.004,inactive: -0.055,inactive: 0.015,inactive: 0.065,inactive: -0.065,inactive: 0.052,inactive: 0.03,inactive: -0.11,inactive: -0.17,inactive: 0.031,inactive: 0.001,inactive: -0.047,inactive: 0.021,inactive: -0.014,active: -0.496,inactive: -0.043,,
PRELID1 (UniProt Q9Y255),inactive: 0.011,inactive: -0.034,inactive: -0.253,inactive: 0.279,inactive: 0.077,inactive: -0.149,inactive: 0.075,inactive: 0.093,inactive: -0.12,,inactive: 0.116,inactive: -0.011,inactive: 0.164,inactive: -0.049,inactive: -0.025,,inactive: 0.099,,inactive: 0.049,inactive: -0.09
PPM1G (UniProt O15355),inactive: 0.087,inactive: -0.031,inactive: 0.048,inactive: -0.053,inactive: 0.112,inactive: 0.13,inactive: 0.067,inactive: 0.17,inactive: 0.052,inactive: -0.208,active: -0.381,inactive: 0.066,inactive: 0.087,inactive: -0.073,inactive: 0.098,inactive: 0.017,inactive: -0.025,inactive: -0.04,,
PRKAB2 (UniProt O43741),inactive: 0.122,inactive: 0.106,inactive: 0.118,inactive: -0.079,inactive: 0.074,inactive: 0.177,inactive: -0.18,inactive: 0.027,inactive: 0.067,inactive: 0.085,inactive: -0.185,inactive: 0.022,inactive: 0.205,inactive: -0.089,inactive: 0.067,inactive: 0.043,inactive: -0.247,inactive: -0.015,,
PRKAR1B (UniProt P31321),inactive: 0.102,inactive: 0.004,inactive: -0.057,inactive: 0.015,inactive: 0.04,inactive: -0.038,inactive: 0.133,inactive: -0.036,inactive: -0.12,inactive: 0.024,inactive: -0.054,inactive: -0.067,inactive: -0.063,inactive: 0.12,inactive: -0.001,inactive: 0.127,active: 0.43,inactive: -0.019,,
PPP2R5E (UniProt Q16537),inactive: -0.049,inactive: -0.023,inactive: 0.066,inactive: 0.003,inactive: 0.027,inactive: 0.07,inactive: 0.03,inactive: 0.032,inactive: 0.027,active: -0.259,active: -0.404,inactive: -0.025,inactive: -0.034,inactive: -0.165,inactive: 0.018,inactive: -0.048,active: -0.99,inactive: -0.065,,
PRKCG (UniProt P05129),inactive: 0.085,inactive: -0.058,inactive: 0.021,inactive: -0.08,inactive: -0.041,inactive: 0.034,inactive: 0.019,inactive: -0.316,inactive: -0.094,inactive: -0.253,inactive: -0.062,inactive: 0.058,inactive: 0.086,inactive: -0.117,inactive: 0.058,inactive: 0.093,inactive: -0.176,inactive: -0.117,,
PRG4 (UniProt Q92954),inactive: -0.099,,inactive: 0.106,inactive: -0.007,inactive: 0.008,,inactive: -0.069,inactive: 0.102,inactive: -0.023,inactive: 0.073,,inactive: -0.18,inactive: -0.294,inactive: 0.075,inactive: -0.239,inactive: 0.015,inactive: -0.228,inactive: 0.034,,
PPP2R5C isoform 5 (UniProt Q13362),inactive: 0.001,inactive: 0.012,inactive: 0.052,inactive: -0.171,inactive: 0.066,inactive: 0.038,inactive: 0.032,inactive: 0.059,inactive: 0.018,inactive: -0.12,active: -0.429,inactive: 0.019,inactive: 0.06,inactive: -0.009,inactive: -0.023,inactive: -0.027,inactive: -0.203,inactive: -0.045,,
PPP1R21 (UniProt Q6ZMI0),inactive: 0.066,inactive: -0.043,,inactive: -0.091,inactive: 0.041,inactive: -0.011,,inactive: 0.087,inactive: -0.032,,inactive: -0.295,inactive: -0.181,inactive: 0.063,inactive: -0.037,inactive: 0.04,inactive: 0.131,inactive: -0.17,,inactive: -0.028,inactive: -0.082
PPP1R35 (UniProt Q8TAP8),inactive: -0.011,inactive: 0.025,inactive: 0.034,inactive: -0.009,inactive: -0.049,inactive: 0.008,inactive: -0.027,inactive: 0.112,inactive: -0.074,inactive: 0.062,inactive: 0.101,inactive: -0.062,inactive: 0.062,inactive: 0.007,inactive: -0.004,inactive: 0.027,inactive: -0.032,inactive: 0.065,,
PRPF18 (UniProt Q99633),inactive: 0.035,inactive: -0.153,inactive: 0.056,inactive: 0.046,inactive: 0.168,inactive: -0.121,inactive: -0.138,inactive: -0.045,inactive: 0.153,inactive: 0.089,inactive: -0.026,inactive: 0.021,inactive: 0.077,inactive: -0.148,inactive: -0.002,inactive: -0.138,inactive: -0.076,,inactive: -0.021,inactive: 0.039
PPP1R9A isoform 3 (UniProt Q9ULJ8),inactive: 0.056,,inactive: -0.196,inactive: 0.114,inactive: 0.287,,inactive: 0.096,,inactive: -0.109,inactive: 0.247,,inactive: -0.018,inactive: -0.226,,inactive: -0.187,inactive: 0.135,,inactive: 0.092,,inactive: -0.087
PROCR (UniProt Q9UNN8),inactive: -0.089,inactive: -0.05,inactive: 0.115,inactive: -0.23,inactive: 0,inactive: -0.074,,inactive: 0.096,inactive: -0.03,inactive: -0.084,inactive: 0.249,inactive: -0.048,inactive: 0.026,inactive: -0.058,inactive: -0.157,inactive: 0.057,inactive: 0.238,,inactive: 0.046,inactive: -0.015

# 2 records picked at random from the list so far:
Target,log2 fold change [1],log2 fold change [2],log2 fold change [3],log2 fold change (Nexturastat A),log2 fold change (vemurafenib),log2 fold change [4],log2 fold change [5],log2 fold change (givinostat),log2 fold change (barasertib),log2 fold change [6],log2 fold change (volasertib),log2 fold change [7],log2 fold change (epoxomicin),log2 fold change [8],log2 fold change [9],log2 fold change [10],log2 fold change [11],log2 fold change [12],log2 fold change [13],log2 fold change (rosiglitazone)
PRKAB2 (UniProt O43741),inactive: 0.122,inactive: 0.106,inactive: 0.118,inactive: -0.079,inactive: 0.074,inactive: 0.177,inactive: -0.18,inactive: 0.027,inactive: 0.067,inactive: 0.085,inactive: -0.185,inactive: 0.022,inactive: 0.205,inactive: -0.089,inactive: 0.067,inactive: 0.043,inactive: -0.247,inactive: -0.015,,
PRPF6 (UniProt O94906),inactive: 0.094,,inactive: 0.209,inactive: 0.011,,,,inactive: 0.211,inactive: 0.261,,,,inactive: 0.104,inactive: 0.103,,inactive: -0.118,inactive: 0.146,inactive: 0.029,inactive: -0.061,inactive: -0.094
